Record: PubChem BioAssay AID504786 (Drosophila RNAi Screening Center, 2011)
Aim: 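Fly genes required for HIF-dependent transcription when hypoxia is mimicked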 (primary screen). Cells: Drosophila S2 cells with a stable HIF luciferase reporter. Knock-down reagent: long dsRNA against Drosophila genes, about 0.2 µg dsRNA per well of a 384-well plate. Timing: three days of knock-down, then 20 h of DFO before reading. Challenge: desferrioxamine (DFO) at 100 µM, an iron chelator that mimics hypoxia, for 20 h. Measurement: 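HIF reporter luminescence in cells given 100 µM DFO for 20 h, using the mouse ldh-a hypoxia-response element, scored as per-plate z-scores; higher means greater loss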. Scale: z-score: higher = stronger loss of HIF reporter signal.
The deposit covers about 21,000 reagents; below is an unselected part of those with a known target gene and a result. 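Primary screen; positive scores mean lost reporter signal, so the sign may be inverted from the usual convention.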 A plus sign joins genes that one reagent is predicted to hit. Not all columns of the deposit are shown. Reagent sequences are not shown.

z-score, replicate 1, by gene and reagent
Hex-A (GeneID 45875): DRSC18259 0.1
CG5162 (GeneID 32709): DRSC19935 -0.3
CCKLR-17D3 (GeneID 32864): DRSC20015 0; DRSC20017 -0.4
CG4363 (GeneID 37488): DRSC04465 -0.2
CG3091 (GeneID 31210): DRSC18274 -0.3
CG32767 (GeneID 31430): DRSC18386 0.3
Lip1 (GeneID 43973): DRSC03364 -0.3
CG33966 (GeneID 3885642): DRSC08256 -0.3
gom (GeneID 43934): DRSC04690 -0.2
Nhe2 (GeneID 35376): DRSC03172 0.2; DRSC03377 -0.4
Ugt49B2 (GeneID 42538): DRSC16049 0.5
CG32112 (GeneID 317860): DRSC09815 -0.3
Myo10A (GeneID 32028): DRSC19834 -0.3; DRSC19837 -0.3
CG15480 (GeneID 34723): DRSC02490 -0.4
Rh5 (GeneID 34615): DRSC03412 -0.3
elg1 (GeneID 39770): DRSC10229 -0.3
Ugt37A2 (GeneID 41573): DRSC15861 -0.2
Acyp2 (GeneID 41910): DRSC15336 0
CG4375 (GeneID 33278): DRSC00653 -0.3
CG9411 (GeneID 32392): DRSC20184 -0.3
CG14174 (GeneID 39139): DRSC10175 -0.2
l(3)neo38 (GeneID 41423): DRSC14946 -0.3; DRSC16138 -0.3
CG5418 (GeneID 34663): DRSC02857 0.2
Eip63F-1 (GeneID 47878): DRSC08072 -0.1; DRSC08659 -0.3
Deaf1 (GeneID 40164): DRSC11143 -0.3
CG7650 (GeneID 39694): DRSC10898 -0.2
CG8405 (GeneID 36772): DRSC05599 -1.2; DRSC07166 -0.4
Slu7 (GeneID 43427): DRSC14729 4.5
CG1307 (GeneID 40814): DRSC12492 -0.4
CG31806 (GeneID 261615): DRSC02787 -0.1
eIF4G1 (GeneID 43839): DRSC17218 7.8
CG6005 (GeneID 42279): DRSC15945 -0.1
CG5172 (GeneID 32711): DRSC19936 0.1
inaF-B + inaF-D + inaF-C + 1 more: DRSC20342 -0.4
Pkd2 (GeneID 34651): DRSC02962 -0.2
dod (GeneID 33111): DRSC20577 0.2
CG3513 (GeneID 33590): DRSC00608 -0.4
tup (GeneID 35147): DRSC03627 -0.4
Atg5 (GeneID 31666): DRSC18112 -0.4
MsrA (GeneID 39675): DRSC11159 -0.4
Ing5 (GeneID 34752): DRSC03188 0.5
CG31326 (GeneID 41728): DRSC16532 -0.2
aurA (GeneID 41446): DRSC16905 -0.2
CG4408 (GeneID 42762): DRSC15574 -0.2
CG13251 (GeneID 40286): DRSC11699 -0.2
Ssl1 (GeneID 40509): DRSC11634 -0.4
Nup35 (GeneID 32851): DRSC19999 -0.3
Pcmt (GeneID 40668): DRSC12363 -0.4
RpS28b (GeneID 31897): DRSC18258 4.6
CkIIbeta (GeneID 32132): DRSC20230 0.8
CG15399 (GeneID 33472): DRSC00413 -0.1
Tsf2 (GeneID 39435): DRSC09751 -0.3
Trs31 (GeneID 36641): DRSC05975 -0.5
snRNA:U1:95Cc + snRNA:U1:95Cb: DRSC13641 -0.2
CG9072 (GeneID 32443): DRSC20147 -0.3
CG13217 (GeneID 36180): DRSC06339 -0.2
sog (GeneID 32498): DRSC20379 -0.5
CG3632 (GeneID 32589): DRSC19137 -0.2; DRSC19871 0.1
GluProRS (GeneID 42834): DRSC14095 0
CG18538 (GeneID 37095): DRSC06765 -0.3
CG10035 (GeneID 41511): DRSC14177 -0.2
Spg7 (GeneID 31253): DRSC18469 -0.3
Cbp80 (GeneID 44409): DRSC18450 1.4
RpS3A (GeneID 43768): DRSC17168 6.9
CG15452 (GeneID 33061): DRSC20523 -0.2
CG11811 (GeneID 39213): DRSC09862 -0.4
SF2 (GeneID 53443): DRSC16845 5.4
eEF1alpha1 (GeneID 36271): DRSC07421 4.3
CG4815 (GeneID 43360): DRSC15653 -0.2
Or1a (GeneID 30978): DRSC18689 -0.4
CG34451 (GeneID 5740612): DRSC09388 -0.8; DRSC09389 0.9
CG10587 (GeneID 40318): DRSC11627 -0.3
Oamb (GeneID 43982): DRSC13433 0.8; DRSC15120 0.5; DRSC16763 0

8 consecutive reagents from above:
z-score, replicate 1, by gene and reagent
RpS28b (GeneID 31897): DRSC18258 4.6
CkIIbeta (GeneID 32132): DRSC20230 0.8
CG15399 (GeneID 33472): DRSC00413 -0.1
Tsf2 (GeneID 39435): DRSC09751 -0.3
Trs31 (GeneID 36641): DRSC05975 -0.5
snRNA:U1:95Cc + snRNA:U1:95Cb: DRSC13641 -0.2
CG9072 (GeneID 32443): DRSC20147 -0.3
CG13217 (GeneID 36180): DRSC06339 -0.2
